The text below walks through data of patent publication US5037822A, “1-arylsulphonyl-2-pyrrolidinethione or 1-arylsulphonyl-2-piperidinethione derivatives, process for the preparation thereof their application as medicinal products and compositions containing them” (Roussel-Uclaf, priority 1989, dated 1991).

This experiment has as its system isolated guinea pig ileum, contractions induced by histamine. The experiment can be described thus: Antagonist action on histamine-induced contractions of isolated guinea pig ileum. It counts as cell-based. The settings on record: Cavia porcellus, read-out: Antagonist to Histam., IC50. The method, then:
The interaction of the compounds with different receptors was assessed on isolated guinea pig ileum according to the following method.
Guinea pig ileum segments measuring 2.5-3 cm were washed and immediately suspended in a bath containing 10 ml of Tyrode's solution at 37° C. aerated with a mixture of oxygen (95%) and carbon dioxide (5%). After a stabilization period of at least 30 minutes, the contractions were recorded, maintaining the preparation under constant tension of 1 g using a gauge connected to a polygraph. The agonist action was assessed by leaving the compound in contact with the isolated tissue for a period necessary for expressing the maximal contraction; the preparation was then washed with Tyrode's solution. The next dose was added to the bath only after the preparation had returned to its base line. As a reference product, arecoline was employed. The antagonist action was assessed on contractions induced by acetylchloine (1×10^-6 M), histamine (1×10^-5 M) and barium chloride (2×10^-4 M). Atropine, diphenhydramine and papaverine were employed as reference products. The contact time before adding the agonist was one minute.
For each compound, the dose-response curves are obtained with 4 to 6 different concentrations and 3 to 5 independent tests. The agonist activity is expressed by pD2 (negative logarithm of the dose which produces 50% of the maximum effect). […]

With `CN(C)CCOC(c1ccccc1)c1ccccc1` [Diphenhydramine, diphenhydramine, reference compound], the 50% inhibitory concentration (IC50) (in general, the concentration at which inhibition is half-maximal) is 0.83 µM.
